Assay [1] concerns the target Neuropilin-1 (NRP-1), overexpressed in HEK293T cells (UniProt O14786). Description: co-IP; HEK293T cotransfected with NRP-1 and FLAG-ENG or FLAG-ALK1; lysate (500 ug) in IP buffer (50 mM Tris-buffered saline pH 8.0, 0.05% sodium deoxycholate, 0.1% NP-40); IP with 5 ug anti-NRP-1 antibody at 4 C overnight, anti-rabbit IgG magnetic beads; blot anti-FLAG.
Assay [2] has as its target T1, FLAG-tagged endoglin (ENG), overexpressed in HEK293T cells (UniProt P17813).
T1 sequence: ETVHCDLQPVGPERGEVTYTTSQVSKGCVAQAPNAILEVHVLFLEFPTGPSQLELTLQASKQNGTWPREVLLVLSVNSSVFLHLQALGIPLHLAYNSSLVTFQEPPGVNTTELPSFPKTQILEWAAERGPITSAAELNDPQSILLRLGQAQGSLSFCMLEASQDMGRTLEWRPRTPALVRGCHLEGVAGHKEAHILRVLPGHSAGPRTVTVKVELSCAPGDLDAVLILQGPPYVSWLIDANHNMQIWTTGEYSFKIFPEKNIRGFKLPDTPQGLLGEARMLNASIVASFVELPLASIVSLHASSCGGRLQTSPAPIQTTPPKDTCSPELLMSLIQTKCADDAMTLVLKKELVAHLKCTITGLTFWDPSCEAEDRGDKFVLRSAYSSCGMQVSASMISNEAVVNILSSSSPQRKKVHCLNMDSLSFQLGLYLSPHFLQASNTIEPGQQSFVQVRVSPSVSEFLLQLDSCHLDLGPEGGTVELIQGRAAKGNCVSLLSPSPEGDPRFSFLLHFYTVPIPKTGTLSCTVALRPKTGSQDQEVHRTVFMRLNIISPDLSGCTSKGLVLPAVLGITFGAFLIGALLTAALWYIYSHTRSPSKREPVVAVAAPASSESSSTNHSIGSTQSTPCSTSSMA
Briefly: co-IP; HEK293T overexpressing NRP-1 and FLAG-ALK1 or FLAG-ENG; lysate immunoprecipitated with FLAG antibody; blot anti-NRP-1.

Protein sequences, listed by entry. Tags and fused reporters are not part of them. Residues count along the entry.
UniProt O14786, residues 22-923: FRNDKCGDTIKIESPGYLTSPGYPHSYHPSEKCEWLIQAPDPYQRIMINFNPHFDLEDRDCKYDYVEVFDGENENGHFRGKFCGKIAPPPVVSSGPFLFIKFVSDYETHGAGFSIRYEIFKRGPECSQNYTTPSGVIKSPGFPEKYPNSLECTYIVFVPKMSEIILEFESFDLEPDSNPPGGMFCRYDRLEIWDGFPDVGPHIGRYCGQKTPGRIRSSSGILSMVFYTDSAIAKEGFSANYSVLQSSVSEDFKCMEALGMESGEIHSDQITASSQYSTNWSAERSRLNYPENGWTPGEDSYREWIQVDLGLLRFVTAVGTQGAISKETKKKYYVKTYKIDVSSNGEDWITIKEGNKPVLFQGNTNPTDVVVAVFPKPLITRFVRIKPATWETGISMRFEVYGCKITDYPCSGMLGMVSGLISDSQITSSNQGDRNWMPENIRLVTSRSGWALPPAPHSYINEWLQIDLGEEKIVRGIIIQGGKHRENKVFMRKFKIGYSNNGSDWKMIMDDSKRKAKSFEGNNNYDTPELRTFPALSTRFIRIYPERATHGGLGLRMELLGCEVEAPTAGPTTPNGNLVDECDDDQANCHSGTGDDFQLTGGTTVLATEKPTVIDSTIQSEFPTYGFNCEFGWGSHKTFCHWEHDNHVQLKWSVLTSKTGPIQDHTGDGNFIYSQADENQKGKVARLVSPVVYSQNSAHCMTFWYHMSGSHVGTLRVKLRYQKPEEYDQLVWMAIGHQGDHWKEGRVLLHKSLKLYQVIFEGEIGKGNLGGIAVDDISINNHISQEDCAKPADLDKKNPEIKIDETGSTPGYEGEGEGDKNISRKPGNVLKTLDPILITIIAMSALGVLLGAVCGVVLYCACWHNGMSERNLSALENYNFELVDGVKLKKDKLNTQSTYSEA
UniProt P37023, residues 22-503: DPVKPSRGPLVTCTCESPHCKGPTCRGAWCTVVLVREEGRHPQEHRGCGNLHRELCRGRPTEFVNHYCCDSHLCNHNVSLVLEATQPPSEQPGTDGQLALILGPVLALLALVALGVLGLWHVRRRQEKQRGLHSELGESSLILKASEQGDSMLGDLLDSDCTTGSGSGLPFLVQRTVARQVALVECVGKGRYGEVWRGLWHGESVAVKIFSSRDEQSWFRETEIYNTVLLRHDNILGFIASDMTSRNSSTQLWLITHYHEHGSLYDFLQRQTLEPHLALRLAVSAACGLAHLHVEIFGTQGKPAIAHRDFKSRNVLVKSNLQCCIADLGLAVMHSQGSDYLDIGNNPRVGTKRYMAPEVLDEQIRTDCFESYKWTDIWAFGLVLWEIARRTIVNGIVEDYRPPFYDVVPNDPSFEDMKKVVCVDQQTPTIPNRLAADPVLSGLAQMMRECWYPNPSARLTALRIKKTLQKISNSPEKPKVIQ

For assay [3], the target named is FLAG-tagged activin-A receptor like type 1 (ALK1), overexpressed in HEK293T cells (UniProt P37023). The description is as above.
Assay [4] deals with Neuropilin-1 (NRP-1), endogenous in mouse aortic smooth muscle cells (mouse (endogenous in aortic SMCs)) (UniProt P97333). Description: co-IP; endogenous proteins in aortic SMCs from a C57BL/6J mouse, serum-starved overnight, unstimulated or stimulated with 10 ng/mL TGF-beta1 for 15 and 30 minutes; IP anti-NRP-1; blots for ALK1 and ENG.

Results are given in words; binding and its absence hold for the method and conditions named. Binding seen in cells or lysates may run through a third protein. Some results given as binding are weak or reduced against the parent protein; the word gives no strength. For some assays here: Tags and fused reporters may be left off the sequences shown.

Consider “FLAG-tagged activin-A receptor like type 1 (ALK1), overexpressed in HEK293T cells (from UniProt P37023 22-503)”, for which, in assay [1], the binding entry was “binds”.

“Neuropilin-1 (NRP-1), overexpressed in HEK293T cells (from UniProt O14786 22-923) (receptor)”: the binding entry in assay [2] and in assay [3] was “binds” throughout.

B1: FLAG-tagged endoglin (ENG), overexpressed in HEK293T cells (receptor, UniProt P17813 26-658)
chain: T1 sequence
For B1, the binding entry in assay [1] is on record as “binds”.

B2: Activin-A receptor like type 1 (ALK1), endogenous in mouse aortic smooth muscle cells (receptor, UniProt Q61288 23-502)
chain: DLAKPSKLVNCTCESPHCKRPFCQGSWCTVVLVREQGRHPQVYRGCGSLNQELCLGRPTEFLNHHCCYRSFCNHNVSLMLEATQTPSEEPEVDAHLPLILGPVLALPVLVALGALGLWRVRRRQEKQRDLHSDLGESSLILKASEQADSMLGDFLDSDCTTGSGSGLPFLVQRTVARQVALVECVGKGRYGEVWRGSWHGESVAVKIFSSRDEQSWFRETEIYNTVLLRHDNILGFIASDMTSRNSSTQLWLITHYHEHGSLYDFLQRQTLEPQLALRLAVSAACGLAHLHVEIFGTQGKPAIAHRDLKSRNVLVKSNLQCCIADLGLAVMHSQSSDYLDIGNNPRVGTKRYMAPEVLDEHIRTDCFESYKWTDIWAFGLVLWEIARRTIINGIVEDYRPPFYDMVPNDPSFEDMKKVVCVDQQTPTIPNRLAADPVLSGLAQMMRECWYPNPSARLTALRIKKTLQKLSHNPEKPKVIH
For B2, the binding entry in assay [4] was “binds”.

The values are drawn from publication PMC9090252.
